According to paper doi:10.1101/353086:
These are yes or no findings as the source states them, for the method shown. In cells and extracts the contact can be indirect. A yes stands for co-enrichment or nearness to the bait. Other partners may have been found. For some of these results: Sequences can lack the tags named with a protein. Values belong to the molecule of their own block, whether it stands above or below them.

Sequences of proteins named here, by UniProt entry; tags and fusion partners are left off. Residues count along the entry.
UniProt Q00610: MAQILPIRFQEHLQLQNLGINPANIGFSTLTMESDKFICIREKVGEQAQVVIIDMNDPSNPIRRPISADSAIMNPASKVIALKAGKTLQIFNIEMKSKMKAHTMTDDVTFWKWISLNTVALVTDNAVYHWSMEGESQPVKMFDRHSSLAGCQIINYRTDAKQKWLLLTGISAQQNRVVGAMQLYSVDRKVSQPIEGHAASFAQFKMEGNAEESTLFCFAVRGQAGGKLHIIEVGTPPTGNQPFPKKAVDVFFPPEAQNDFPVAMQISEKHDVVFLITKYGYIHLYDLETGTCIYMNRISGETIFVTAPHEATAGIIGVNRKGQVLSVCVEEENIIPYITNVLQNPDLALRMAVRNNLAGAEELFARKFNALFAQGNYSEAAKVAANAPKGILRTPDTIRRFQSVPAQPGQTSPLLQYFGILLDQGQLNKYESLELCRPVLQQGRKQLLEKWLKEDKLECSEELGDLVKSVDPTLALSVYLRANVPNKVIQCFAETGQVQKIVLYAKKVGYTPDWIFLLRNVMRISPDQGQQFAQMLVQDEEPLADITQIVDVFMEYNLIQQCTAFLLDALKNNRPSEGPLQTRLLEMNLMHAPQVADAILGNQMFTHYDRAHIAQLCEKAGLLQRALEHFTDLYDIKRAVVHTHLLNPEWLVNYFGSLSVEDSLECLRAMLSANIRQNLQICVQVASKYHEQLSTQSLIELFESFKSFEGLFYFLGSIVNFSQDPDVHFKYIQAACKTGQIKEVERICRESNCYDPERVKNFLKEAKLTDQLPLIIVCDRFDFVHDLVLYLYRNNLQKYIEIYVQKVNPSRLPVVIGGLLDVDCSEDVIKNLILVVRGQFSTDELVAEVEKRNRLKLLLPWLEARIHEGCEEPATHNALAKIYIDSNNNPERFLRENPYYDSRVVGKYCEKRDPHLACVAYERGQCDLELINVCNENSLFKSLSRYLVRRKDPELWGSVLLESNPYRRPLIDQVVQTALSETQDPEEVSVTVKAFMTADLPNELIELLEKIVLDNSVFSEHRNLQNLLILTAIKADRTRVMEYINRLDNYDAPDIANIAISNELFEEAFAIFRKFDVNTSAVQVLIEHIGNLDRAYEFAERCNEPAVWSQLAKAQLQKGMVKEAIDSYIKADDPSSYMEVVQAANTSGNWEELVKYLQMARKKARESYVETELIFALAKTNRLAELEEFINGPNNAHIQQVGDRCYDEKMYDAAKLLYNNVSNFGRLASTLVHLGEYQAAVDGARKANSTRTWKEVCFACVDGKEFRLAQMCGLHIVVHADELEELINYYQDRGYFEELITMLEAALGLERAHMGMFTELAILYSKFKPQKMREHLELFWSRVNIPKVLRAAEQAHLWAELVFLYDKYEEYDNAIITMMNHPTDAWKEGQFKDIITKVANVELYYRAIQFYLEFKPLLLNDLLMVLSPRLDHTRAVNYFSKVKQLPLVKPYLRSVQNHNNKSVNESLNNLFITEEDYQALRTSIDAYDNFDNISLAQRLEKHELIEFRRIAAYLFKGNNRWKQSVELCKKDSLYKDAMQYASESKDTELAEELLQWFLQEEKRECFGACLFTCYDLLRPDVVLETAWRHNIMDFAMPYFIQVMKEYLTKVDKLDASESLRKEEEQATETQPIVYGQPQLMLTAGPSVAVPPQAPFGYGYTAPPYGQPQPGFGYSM
UniProt P11717, residues 41-2491: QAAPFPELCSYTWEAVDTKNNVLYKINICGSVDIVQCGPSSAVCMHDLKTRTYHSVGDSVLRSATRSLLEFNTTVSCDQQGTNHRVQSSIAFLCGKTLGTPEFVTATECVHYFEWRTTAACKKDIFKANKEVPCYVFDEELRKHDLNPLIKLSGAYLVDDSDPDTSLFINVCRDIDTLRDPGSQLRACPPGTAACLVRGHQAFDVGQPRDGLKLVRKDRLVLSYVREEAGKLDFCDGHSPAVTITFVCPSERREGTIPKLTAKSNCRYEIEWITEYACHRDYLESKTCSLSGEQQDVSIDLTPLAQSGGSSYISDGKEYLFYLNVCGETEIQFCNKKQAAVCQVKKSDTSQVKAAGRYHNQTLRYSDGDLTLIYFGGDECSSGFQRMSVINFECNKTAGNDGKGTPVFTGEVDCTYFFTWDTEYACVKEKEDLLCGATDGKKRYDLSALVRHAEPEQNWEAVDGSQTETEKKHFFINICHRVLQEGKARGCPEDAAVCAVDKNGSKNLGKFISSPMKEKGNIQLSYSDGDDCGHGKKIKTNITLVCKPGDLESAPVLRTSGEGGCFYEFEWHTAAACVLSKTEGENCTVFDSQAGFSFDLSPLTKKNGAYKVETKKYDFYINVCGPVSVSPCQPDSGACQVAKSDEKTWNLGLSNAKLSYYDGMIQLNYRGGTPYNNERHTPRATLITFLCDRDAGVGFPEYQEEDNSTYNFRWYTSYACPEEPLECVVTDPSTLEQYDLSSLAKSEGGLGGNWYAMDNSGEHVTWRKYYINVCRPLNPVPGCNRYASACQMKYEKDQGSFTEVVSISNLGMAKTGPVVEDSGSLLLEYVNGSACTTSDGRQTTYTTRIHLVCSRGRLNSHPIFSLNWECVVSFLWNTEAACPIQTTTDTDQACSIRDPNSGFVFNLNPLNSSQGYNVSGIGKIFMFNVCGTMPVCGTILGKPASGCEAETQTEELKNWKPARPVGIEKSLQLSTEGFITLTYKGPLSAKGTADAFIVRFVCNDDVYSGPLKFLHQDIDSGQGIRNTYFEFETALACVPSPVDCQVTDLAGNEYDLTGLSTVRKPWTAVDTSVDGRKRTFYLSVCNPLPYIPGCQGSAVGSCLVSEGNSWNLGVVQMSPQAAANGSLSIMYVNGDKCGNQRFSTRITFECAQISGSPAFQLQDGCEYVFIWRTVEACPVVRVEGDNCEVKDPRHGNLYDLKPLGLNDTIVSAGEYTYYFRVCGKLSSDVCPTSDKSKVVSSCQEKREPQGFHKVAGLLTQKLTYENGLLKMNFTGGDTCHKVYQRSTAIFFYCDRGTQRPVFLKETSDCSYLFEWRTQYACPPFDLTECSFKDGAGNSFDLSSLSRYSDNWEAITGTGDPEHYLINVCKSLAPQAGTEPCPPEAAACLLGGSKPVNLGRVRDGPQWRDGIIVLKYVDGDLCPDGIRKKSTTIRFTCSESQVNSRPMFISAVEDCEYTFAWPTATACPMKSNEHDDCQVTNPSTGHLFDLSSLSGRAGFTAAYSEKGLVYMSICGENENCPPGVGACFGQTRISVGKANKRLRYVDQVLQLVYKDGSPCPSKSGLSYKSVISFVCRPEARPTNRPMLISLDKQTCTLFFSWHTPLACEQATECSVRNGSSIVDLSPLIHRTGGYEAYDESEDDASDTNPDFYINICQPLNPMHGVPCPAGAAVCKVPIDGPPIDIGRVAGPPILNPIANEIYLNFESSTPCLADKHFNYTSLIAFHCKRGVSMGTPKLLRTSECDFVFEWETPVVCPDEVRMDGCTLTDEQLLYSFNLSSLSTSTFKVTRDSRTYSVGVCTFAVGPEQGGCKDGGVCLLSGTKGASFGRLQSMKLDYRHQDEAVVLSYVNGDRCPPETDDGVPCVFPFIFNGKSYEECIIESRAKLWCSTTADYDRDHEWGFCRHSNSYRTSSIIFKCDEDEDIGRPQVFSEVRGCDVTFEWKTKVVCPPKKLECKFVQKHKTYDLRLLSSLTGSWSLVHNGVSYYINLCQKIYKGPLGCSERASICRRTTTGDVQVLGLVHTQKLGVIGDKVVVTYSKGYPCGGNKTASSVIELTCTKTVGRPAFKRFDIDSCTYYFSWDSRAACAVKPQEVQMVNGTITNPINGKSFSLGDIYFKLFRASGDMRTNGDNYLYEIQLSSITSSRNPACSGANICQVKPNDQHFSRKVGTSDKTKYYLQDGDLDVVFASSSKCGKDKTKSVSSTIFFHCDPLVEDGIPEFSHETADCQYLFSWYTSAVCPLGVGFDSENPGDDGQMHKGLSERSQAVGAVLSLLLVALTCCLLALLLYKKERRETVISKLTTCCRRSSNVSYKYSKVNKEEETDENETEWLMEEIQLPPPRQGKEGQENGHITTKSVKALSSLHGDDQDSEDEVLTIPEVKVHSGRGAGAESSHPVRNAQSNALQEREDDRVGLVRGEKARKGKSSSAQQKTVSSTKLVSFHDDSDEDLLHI
UniProt P61026: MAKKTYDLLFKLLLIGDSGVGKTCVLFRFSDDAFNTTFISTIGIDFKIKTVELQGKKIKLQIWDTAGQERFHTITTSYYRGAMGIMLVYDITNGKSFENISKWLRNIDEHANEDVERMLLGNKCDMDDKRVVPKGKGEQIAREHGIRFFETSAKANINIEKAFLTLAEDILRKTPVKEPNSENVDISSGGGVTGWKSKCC
UniProt P62330: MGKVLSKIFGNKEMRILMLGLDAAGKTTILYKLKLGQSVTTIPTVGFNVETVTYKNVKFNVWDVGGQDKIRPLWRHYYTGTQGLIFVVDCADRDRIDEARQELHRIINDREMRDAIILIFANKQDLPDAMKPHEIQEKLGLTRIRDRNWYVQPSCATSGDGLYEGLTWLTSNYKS

Experiments:
Myc-BioID-GGA2 (human) = Myc-BioID-GGA2 (human) (UniProt Q9UJY4); assay: proximity labelling
[1] = biological target: T1, Myc-BioID-GGA2 (human), Q9UJY4; assay: proximity labelling; conditions: remark: other sources report otherwise
T1 chain: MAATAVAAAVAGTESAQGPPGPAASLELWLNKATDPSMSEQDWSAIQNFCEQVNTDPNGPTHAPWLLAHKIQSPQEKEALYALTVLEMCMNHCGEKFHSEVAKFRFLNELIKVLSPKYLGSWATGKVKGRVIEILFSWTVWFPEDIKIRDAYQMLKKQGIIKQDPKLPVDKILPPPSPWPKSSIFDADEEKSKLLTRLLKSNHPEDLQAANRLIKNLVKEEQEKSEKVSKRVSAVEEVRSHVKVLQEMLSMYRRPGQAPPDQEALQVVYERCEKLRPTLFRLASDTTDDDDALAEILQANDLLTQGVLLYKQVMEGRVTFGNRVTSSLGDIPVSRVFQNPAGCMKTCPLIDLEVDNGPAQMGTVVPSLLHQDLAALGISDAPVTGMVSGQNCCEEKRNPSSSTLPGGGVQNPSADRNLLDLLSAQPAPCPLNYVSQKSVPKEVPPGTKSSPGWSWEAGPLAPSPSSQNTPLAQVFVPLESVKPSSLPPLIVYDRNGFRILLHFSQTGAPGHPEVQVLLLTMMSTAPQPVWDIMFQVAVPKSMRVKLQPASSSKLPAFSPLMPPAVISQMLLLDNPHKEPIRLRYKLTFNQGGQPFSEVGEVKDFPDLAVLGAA

Molecule: clathrin (endogenous) (from UniProt Q00610 1-1675)
binding (Myc-BioID-GGA2 (human)): binds

Molecule: IGFR2 (endogenous) (from UniProt P11717 41-2491) (receptor)
binding (Myc-BioID-GGA2 (human)): binds

Molecule: RAB10 (endogenous) (from UniProt P61026 1-200)
binding (Myc-BioID-GGA2 (human)): binds

B2: RAB13 (endogenous) (protein, UniProt P51153 1-203)
chain: MAKAYDHLFKLLLIGDSGVGKTCLIIRFAEDNFNNTYISTIGIDFKIRTVDIEGKKIKLQVWDTAGQERFKTITTAYYRGAMGIILVYDITDEKSFENIQNWMKSIKENASAGVERLLLGNKCDMEAKRKVQKEQADKLAREHGIRFFETSAKSSMNVDEAFSSLARDILLKSGGRRSGNGNKPPSTDLKTCDKKNTNKCSLG
binding (Myc-BioID-GGA2 (human)): binds

B3: GGA1 (endogenous), Q9UJY5 1-639 (protein)
chain: MEPAMEPETLEARINRATNPLNKELDWASINGFCEQLNEDFEGPPLATRLLAHKIQSPQEWEAIQALTVLETCMKSCGKRFHDEVGKFRFLNELIKVVSPKYLGSRTSEKVKNKILELLYSWTVGLPEEVKIAEAYQMLKKQGIVKSDPKLPDDTTFPLPPPRPKNVIFEDEEKSKMLARLLKSSHPEDLRAANKLIKEMVQEDQKRMEKISKRVNAIEEVNNNVKLLTEMVMSHSQGGAAAGSSEDLMKELYQRCERMRPTLFRLASDTEDNDEALAEILQANDNLTQVINLYKQLVRGEEVNGDATAGSIPGSTSALLDLSGLDLPPAGTTYPAMPTRPGEQASPEQPSASVSLLDDELMSLGLSDPTPPSGPSLDGTGWNSFQSSDATEPPAPALAQAPSMESRPPAQTSLPASSGLDDLDLLGKTLLQQSLPPESQQVRWEKQQPTPRLTLRDLQNKSSSCSSPSSSATSLLHTVSPEPPRPPQQPVPTELSLASITVPLESIKPSNILPVTVYDQHGFRILFHFARDPLPGRSDVLVVVVSMLSTAPQPIRNIVFQSAVPKVMKVKLQPPSGTELPAFNPIVHPSAITQVLLLANPQKEKVRLRYKLTFTMGDQTYNEMGDVDQFPPPETWGSL
binding [1]: binds

More lines, now with the values ahead:

binding (Myc-BioID-GGA2 (human)): binds
Molecule: ARF6 (endogenous) (from UniProt P62330 1-175)

binding [1]: binds
B1: GGA3 (endogenous), Q9NZ52 1-723 (protein)
chain: MAEAEGESLESWLNKATNPSNRQEDWEYIIGFCDQINKELEGPQIAVRLLAHKIQSPQEWEALQALTVLEACMKNCGRRFHNEVGKFRFLNELIKVVSPKYLGDRVSEKVKTKVIELLYSWTMALPEEAKIKDAYHMLKRQGIVQSDPPIPVDRTLIPSPPPRPKNPVFDDEEKSKLLAKLLKSKNPDDLQEANKLIKSMVKEDEARIQKVTKRLHTLEEVNNNVRLLSEMLLHYSQEDSSDGDRELMKELFDQCENKRRTLFKLASETEDNDNSLGDILQASDNLSRVINSYKTIIEGQVINGEVATLTLPDSEGNSQCSNQGTLIDLAELDTTNSLSSVLAPAPTPPSSGIPILPPPPQASGPPRSRSSSQAEATLGPSSTSNALSWLDEELLCLGLADPAPNVPPKESAGNSQWHLLQREQSDLDFFSPRPGTAACGASDAPLLQPSAPSSSSSQAPLPPPFPAPVVPASVPAPSAGSSLFSTGVAPALAPKVEPAVPGHHGLALGNSALHHLDALDQLLEEAKVTSGLVKPTTSPLIPTTTPARPLLPFSTGPGSPLFQPLSFQSQGSPPKGPELSLASIHVPLESIKPSSALPVTAYDKNGFRILFHFAKECPPGRPDVLVVVVSMLNTAPLPVKSIVLQAAVPKSMKVKLQPPSGTELSPFSPIQPPAAITQVMLLANPLKEKVRLRYKLTFALGEQLSTEVGEVDQFPPVEQWGNL
